The values below are quoted from earlier work in US20020041888A1, “Method and composition for treating cancer by administration of apoptosis-inducing chemotherapeutic agents” (priority 2000, published 2002).

For the series the following is noted: without solubilizing carrier.

As to `CC(=O)O[C@H]1C(=O)[C@@]2(C)[C@H]([C@H](OC(=O)c3ccccc3)[C@]3(O)C[C@H](OC(=O)[C@H](O)[C@@H](NC(=O)c4ccccc4)c4ccccc4)C(C)=C1C3(C)C)[C@]1(OC(C)=O)CO[C@@H]1C[C@@H]2O` [paclitaxel, Paclitaxel], the water solubility entry is recorded as “substantially water insoluble”.
